Source: PMC8070143
Results are given in words; binding and its absence hold for the method and conditions named. Binding seen in cells or lysates may run through a third protein. Some results given as binding are weak or reduced against the parent protein; the word gives no strength.

Biological target: voltage-dependent anion channel 1 (VDAC1) (human (endogenous in A2780)), P21796
Test: co-IP; A2780 cells transfected with wt-p62 or ΔUBA-p62, cisplatin 5 μg/mL 6 h; NP40 lysis buffer; co-IP of HK2 with VDAC1, the precipitating antibody is not told for this panel
Settings: remark: other sources report otherwise

B1: hexokinase 2 (HK2), P52789 1-917 (enzyme)
chain: MIASHLLAYFFTELNHDQVQKVDQYLYHMRLSDETLLEISKRFRKEMEKGLGATTHPTAAVKMLPTFVRSTPDGTEHGEFLALDLGGTNFRVLWVKVTDNGLQKVEMENQIYAIPEDIMRGSGTQLFDHIAECLANFMDKLQIKDKKLPLGFTFSFPCHQTKLDESFLVSWTKGFKSSGVEGRDVVALIRKAIQRRGDFDIDIVAVVNDTVGTMMTCGYDDHNCEIGLIVGTGSNACYMEEMRHIDMVEGDEGRMCINMEWGAFGDDGSLNDIRTEFDQEIDMGSLNPGKQLFEKMISGMYMGELVRLILVKMAKEELLFGGKLSPELLNTGRFETKDISDIEGEKDGIRKAREVLMRLGLDPTQEDCVATHRICQIVSTRSASLCAATLAAVLQRIKENKGEERLRSTIGVDGSVYKKHPHFAKRLHKTVRRLVPGCDVRFLRSEDGSGKGAAMVTAVAYRLADQHRARQKTLEHLQLSHDQLLEVKRRMKVEMERGLSKETHASAPVKMLPTYVCATPDGTEKGDFLALDLGGTNFRVLLVRVRNGKWGGVEMHNKIYAIPQEVMHGTGDELFDHIVQCIADFLEYMGMKGVSLPLGFTFSFPCQQNSLDESILLKWTKGFKASGCEGEDVVTLLKEAIHRREEFDLDVVAVVNDTVGTMMTCGFEDPHCEVGLIVGTGSNACYMEEMRNVELVEGEEGRMCVNMEWGAFGDNGCLDDFRTEFDVAVDELSLNPGKQRFEKMISGMYLGEIVRNILIDFTKRGLLFRGRISERLKTRGIFETKFLSQIESDCLALLQVRAILQHLGLESTCDDSIIVKEVCTVVARRAAQLCGAGMAAVVDRIRENRGLDALKVTVGVDGTLYKLHPHFAKVMHETVKDLAPKCDVSFLQSEDGSGKGAALITAVACRIREAGQR
Question: For B1, which binding is on record?
Answer: binds
